Source: the supplement of paper PMC5949888
Most values lie at the floor of the assay. Slopes are relative: functional sequences can read slightly below zero.

Each substance was assayed on Saccharomyces cerevisiae PS128 hsf1 delta, HSF1(1-493) fusion (assay: growth estimate (transactivation domain function in HSF1 fusion, heat-shock survival) (a.u. (slope of normalised read count over time)); higher = stronger growth at 37°C, i.e. more transactivation activity). Details: library: random library.

Substance | growth estimate
SGQEGKGGSGG | < -0.25
SGQRSGTESERRSASDWLAS | -0.246
SGRGRSVAIALGFRESWVN | < -0.25
SGRGSIACLQSTSESGYRR | < -0.25
SGRIRLLWDIFRVTIVLWTR | < -0.25
SGRMQRGRSVCWAEGSMAAL | < -0.25
SGRRPNLSLGQGSQGS | < -0.25
SGRWRIGR | < -0.25
SGSASRTDMKQSGNPVGRCL | < -0.25
SGSDCDAGARAARRV | < -0.25
SGSFLD | < -0.25
SGSGLWPRSGQNAYGYCRVP | < -0.25
SGSLLSSNAILWFGELIATP | < -0.25
SGSSSVKSSLTSNSITNGPL | < -0.25
SGSWVPATNPGIGYVSTLDE | < -0.25
SGTAGRTQFNKLGELRPHRR | < -0.25
SGTEIGSGLREIMG | < -0.25
SGTGAYLPEIYYKFCILFGP | < -0.25
SGTLLGRASTEARMRRNIQS | < -0.25
SGTQPEGDGHWRSTPELCLR | < -0.25
SGTR | < -0.25
SGTRGMLRFFRDKRSSEIIV | < -0.25
SGTRMRRSPWAKAKVPQSRA | < -0.25
SGVAGLHKQLP | < -0.25
SGVARELARA | < -0.25

As a short view, some entries already given:
Substance | growth estimate
SGSSSVKSSLTSNSITNGPL | < -0.25
SGSWVPATNPGIGYVSTLDE | < -0.25
SGTAGRTQFNKLGELRPHRR | < -0.25
SGTEIGSGLREIMG | < -0.25
SGTGAYLPEIYYKFCILFGP | < -0.25

Next records follow.

Substance | growth estimate
SGVGNTLDVAGTNDSSIDAR | < -0.25
SGVMTPYTNSLRRRG | -0.246
SGVTVAAGCKGELSAT | < -0.25
SGVWMH | < -0.25
SGVWWQQ | < -0.25
SGWWG | < -0.25
SHAASPVEREACLIGPGVL | < -0.25
SHAGKQYVRARCMTLLALSK | < -0.25
SHDPPKL | < -0.25
SHGGVNGL | < -0.25
SHGSISSGR | < -0.25
SHHKGLYADVLSKRAQDAVP | < -0.25
SHI | < -0.25
SHIQATGSERRKRCIVICTR | < -0.25
SHIVAFRHLGRVASCRVH | < -0.25
SHKCQGCVSVKHLEFRSCLV | < -0.25
SHKWTGYEIILHGIRRCVGR | < -0.25
SHLCK | < -0.25
SHLGKIMFFLVSTSGSLSEG | < -0.25
SHNQSACGAGRLG | < -0.25
SHNQVDIQRRVTAISRRLLT | < -0.25
SHPNLFRIPYGRRYI | -0.219
SHQFATQRLRFCRKDLQCPH | < -0.25
SHQTSRPVACSQVRAWHQRR | < -0.25
SHRDLGHGSV | < -0.25

Substance | growth estimate
SHRGE | < -0.25
SHRHYLGFT | < -0.25
SHVEAQVQVLHLWLTLDVRN | < -0.25
SHWE | < -0.25
SHWGLMGVSDASAKVDTSRS | < -0.25
SHWVDLPSEIGAFIEYQARP | -0.149
SIA | < -0.25
SIASCCHDLVSSVRAPSIRV | < -0.25
SIDVAFSH | < -0.25
SIEGLQTRWGTQPLLIYSVA | -0.246
SIEMNSMAM | < -0.25
SIFMESW | < -0.25
SIGV | < -0.25
SIHHTKYITALIARALR | < -0.25
SII | < -0.25
SILEQIVRIRSGGKMKREAP | < -0.25
SILINGTDFDPSTSSHGNTA | < -0.25
SILSGYLDAT | < -0.25
SILVGYVTLYVAYERRNNRR | < -0.25
SILYQVQ | < -0.25
SIMAQGH | < -0.25
SIMTRASAAVVLASSDH | < -0.25
SIMWPSSLQTRDNLRISRFS | < -0.25
SIPSLDCWSCQT | < -0.25
SIRALNTLVVRYAFG | < -0.25

Four entries from above in a different format.
SGTRMRRSPWAKAKVPQSRA
  growth estimate = < -0.25
SGVAGLHKQLP
  growth estimate = < -0.25
SGVARELARA
  growth estimate = < -0.25
SGVGNTLDVAGTNDSSIDAR
  growth estimate = < -0.25

Going on with the list:

Substance | growth estimate
SIRGRQCSESPYHVFVMLSQ | < -0.25
SIRTFLFCTDGRRGGCDQAT | < -0.25
SIRTTQYWRAEVPSLSNLEG | < -0.25
SISSYSPETILYLLESLITG | < -0.25
SITALVGLE | < -0.25
SIV | < -0.25
SIWFSSKRDTLYLFRYASFK | < -0.25
SIWLIRRSFARSRPGILTS | -0.229
SIYVI | < -0.25
SKAAHSVVT | < -0.25
SKCLFKSSAASRPPGISRSK | < -0.25
SKDPSASRQVDKRRVPPMLE | < -0.25
SKDVDEPNKRTWYGRKSPVV | < -0.25
SKEA | < -0.25
SKFKWSHVVKGHRLVCSFIV | < -0.25
SKFMGGSAVD | < -0.25
SKGNTATSEGFCLN | < -0.25
SKHG | < -0.25
SKISDTERSNAPSIRRLT | < -0.25
SKIVHA | -0.197
SKKKLSRRVGNKVTGARRVR | < -0.25
SKNYMD | < -0.25
SKPES | < -0.25
SKPVVAS | < -0.25
SKQCEIWSTTHRSN | < -0.25

Substance | growth estimate
SKRCEAAGLGKMVG | < -0.25
SKRFALVNSQSDVIL | < -0.25
SKRGMVRFTVRLVRVKVPSG | < -0.25
SKRHCVLTFSREPIHLYLPY | < -0.25
SKRTSM | < -0.25
SKSHGQGVARLNNISTTS | < -0.25
SKSNLSDSVTVREGKF | < -0.25
SKSRCALFRCVGEYVVLVVR | < -0.25
SKSRRSPRRSLEDGHARCDD | < -0.25
SKSWNTLLARVLGLSCLPRP | < -0.25
SKT | < -0.25
SKTFAHLTKQLSFGYDKPSN | < -0.25
SKTG | < -0.25
SKTGSRSS | < -0.25
SKTLRNHDAWAKSTCFENVG | < -0.25
SKVKLGLAIEKLNQPRTVFL | < -0.25
SKVTSLSARQPYGPAVL | < -0.25
SKVWGRLAPHGAPKYIGCAL | < -0.25
SKWARMIRGRSAWIPCQRIG | < -0.25
SKYCRPNSLSLRMKGRRW | < -0.25
SKYVRQFWNDSSCSDANAAY | -0.229
SLACHVTRQTEESI | < -0.25
SLACRRPNSISMGWHDTGGH | < -0.25
SLADGGGRLPRKCLVGWTLG | < -0.25
SLALSSGARNSRRAFTQSTY | < -0.25

Substance | growth estimate
SLARNFRAPSNSENRDV | < -0.25
SLCKSRPRVPFREDGLGGPY | < -0.25
SLCLWEYN | < -0.25
SLCPISSRGKIMGGPLLHVL | < -0.25
SLCQTLT | < -0.25
SLCSS | < -0.25
SLDIGVKPHVLGRRG | -0.25
SLDLRGPLQIFCV | < -0.25
SLDSGGWSQRLLQY | < -0.25
SLDTAESVSMLYKGIHLTDL | -0.168
SLELDTAFEQWLAIKSC | < -0.25
SLFRLCLKRVACRGRPSPTS | < -0.25
SLFTAERSSVPLFRETI | < -0.25
SLGCRLGGSESSRDIQDLNP | < -0.25
SLGFINF | < -0.25
SLGG | < -0.25
SLGGSLTTGDNAHEQVGSSA | < -0.25
SLGKHATRGVGIIRGLPCTM | < -0.25
SLGLGTFVLYVSEGPRFQSQ | < -0.25
SLGRDSSKVNSHQWGVIRR | -0.243
SLGSDPCDPQRMRGILRCTI | < -0.25
SLGSLQKGIREKHGCRFG | < -0.25
SLGT | < -0.25
SLGTLVNH | < -0.25
SLGWGGLVASWRGHGRRISV | < -0.25

Substance | growth estimate
SLGWLRMQAKLLEEGVGARG | < -0.25
SLHIMGLLGGPDW | < -0.25
SLHPCISDGLPGETGVWAPE | < -0.25
SLHSSHAVKAWTKRWQGKTR | < -0.25
SLIKHSMVAVAVGRLTALIW | < -0.25
SLIPSNRSAVSSRRYSGGLF | < -0.25
SLK | < -0.25
SLKAYGMTGGIRRMAH | < -0.25
SLKFLVFPR | < -0.25
SLLASGQCISLVRSHA | < -0.25
SLLLLQSGAVGNYRTLPMDN | < -0.25
SLLQDVSAVTNKPMATGPLV | < -0.25
SLLRDRSWTSHDLVLGVQVE | < -0.25
SLM | < -0.25
SLMTCRRLVGRG | < -0.25
SLNEGSLTEAVHRRFPQQVS | < -0.25
SLNGPCLVLSRGKNSIVTRH | < -0.25
SLNLSELQGRPIT | < -0.25
SLNSESIT | < -0.25
SLPASPRVARRSMCFPRG | < -0.25
SLPDPK | < -0.25
SLPGSQFNNSSSIEVTHRV | < -0.25
SLPLATAG | < -0.25
SLPNFSRRGRPRHRRPTPAF | < -0.25
SLPVTTKEVRTYYPTVTKGG | < -0.25

Substance | growth estimate
SLQPVFTGT | < -0.25
SLQQIQSETWWSTFEIRSVF | < -0.25
SLQREDLLQPWGVSIWIPGR | < -0.25
SLQRRPFRSPE | < -0.25
SLQTKLR | < -0.25
SLQTTARMNRP | < -0.25
SLRETINSSSRICIRLLVRN | < -0.25
SLRF | < -0.25
SLRFMERCLSRSYRFQG | < -0.25
SLRNGGGIVCLFDGTIPEPR | -0.246
SLRPWGGPS | < -0.25
SLRQRSLQTSSSTRFHNGSA | < -0.25
SLRRKDCGCYSGRSPWP | < -0.25
SLRRWGAVQPGFVNGLIE | < -0.25
SLRSCKCSRAPQRYRVKLYE | < -0.25
SLRSWHNTDKWKFFSG | < -0.25
SLRVSSGIRTHAPVVLPRIY | < -0.25
SLSADLEHQMARGRQLPCCL | < -0.25
SLSEVLDVYSLGSHGQTSNW | -0.157
SLSGLSFSSPSQHSLFGAEL | < -0.25
SLSGSTRFR | < -0.25
SLSGTHARSVVYHSGQAEHI | < -0.25
